Among the data in publication doi:10.1101/2021.08.19.457009 (bioRxiv, 2021) are binding values, retold here.

No constants are given. Whether binding was seen depends on the method and setting. In cells and extracts the contact can be indirect. Some entries that bind do so weakly or less than the wild type.

This assay deals with T1, human 6His-14-3-3ζ (human, UniProt P63104 1-245).
T1 sequence (looked up): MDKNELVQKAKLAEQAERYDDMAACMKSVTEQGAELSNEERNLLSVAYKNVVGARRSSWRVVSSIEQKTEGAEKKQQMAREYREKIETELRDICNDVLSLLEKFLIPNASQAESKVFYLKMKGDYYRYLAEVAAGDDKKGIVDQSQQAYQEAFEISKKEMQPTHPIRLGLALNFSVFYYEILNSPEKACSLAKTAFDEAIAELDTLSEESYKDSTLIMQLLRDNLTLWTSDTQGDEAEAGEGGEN
Nature of the assay: pull-down.

Take “HCN1 (endogenous, mouse retina and whole brain) (from UniProt O88704 1-910)”: the binding result is “binds”. In the case of “SNAP-TM-HCN1CT reporter CT_(598-910) (from UniProt O88704 598-910) (domain or fragment)” it was “binds”; in that of “full-length HCN1 expressed in HEK293 cells (from UniProt O88704 1-910)”, “binds”.

B1: SNAP-TM-HCN1CT reporter CT_(598-698) (domain or fragment, UniProt O88704 598-698)
chain: LNTGVFNNQENEILKQIVKHDREMVQAIPPINYPQMTALNCTSSTTTPTSRMRTQSPPVYTATSLSHSNLHSPSPSTQTPQPSAILSPCSYTTAVCSPPIQ
As for B1, the binding result is “no binding”.
